Results are given in words; binding and its absence hold for the method and conditions named. Binding seen in cells or lysates may run through a third protein. A yes stands for co-enrichment or nearness to the bait. Other partners may have been found.

The chains behind the UniProt entries cited, without tags or fusion partners.
UniProt P35226: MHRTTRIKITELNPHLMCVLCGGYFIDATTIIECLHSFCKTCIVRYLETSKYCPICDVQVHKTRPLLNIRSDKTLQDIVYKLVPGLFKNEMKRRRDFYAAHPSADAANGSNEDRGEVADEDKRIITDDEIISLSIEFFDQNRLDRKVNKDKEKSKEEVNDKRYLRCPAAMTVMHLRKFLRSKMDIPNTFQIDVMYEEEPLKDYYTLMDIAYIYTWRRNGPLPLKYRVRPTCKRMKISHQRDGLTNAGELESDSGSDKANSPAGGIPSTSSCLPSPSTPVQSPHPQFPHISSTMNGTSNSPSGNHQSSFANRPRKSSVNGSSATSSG
UniProt Q9BSM1: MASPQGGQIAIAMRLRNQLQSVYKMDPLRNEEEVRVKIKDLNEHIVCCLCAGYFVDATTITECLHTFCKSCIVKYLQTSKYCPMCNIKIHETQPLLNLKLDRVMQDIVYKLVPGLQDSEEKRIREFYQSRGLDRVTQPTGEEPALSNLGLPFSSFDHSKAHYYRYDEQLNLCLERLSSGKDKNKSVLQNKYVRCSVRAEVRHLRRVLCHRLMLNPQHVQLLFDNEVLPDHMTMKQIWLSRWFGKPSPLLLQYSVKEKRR
UniProt Q9HC52: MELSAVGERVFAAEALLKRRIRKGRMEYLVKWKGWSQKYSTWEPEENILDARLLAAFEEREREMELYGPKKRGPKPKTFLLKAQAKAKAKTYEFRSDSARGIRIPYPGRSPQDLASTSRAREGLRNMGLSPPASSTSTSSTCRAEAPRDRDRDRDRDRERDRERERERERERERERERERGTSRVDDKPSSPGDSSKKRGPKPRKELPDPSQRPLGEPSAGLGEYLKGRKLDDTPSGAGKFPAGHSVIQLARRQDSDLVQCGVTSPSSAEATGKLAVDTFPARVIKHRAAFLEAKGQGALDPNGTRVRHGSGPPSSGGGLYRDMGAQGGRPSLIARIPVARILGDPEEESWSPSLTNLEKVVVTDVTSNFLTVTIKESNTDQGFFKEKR
UniProt Q9UQR0: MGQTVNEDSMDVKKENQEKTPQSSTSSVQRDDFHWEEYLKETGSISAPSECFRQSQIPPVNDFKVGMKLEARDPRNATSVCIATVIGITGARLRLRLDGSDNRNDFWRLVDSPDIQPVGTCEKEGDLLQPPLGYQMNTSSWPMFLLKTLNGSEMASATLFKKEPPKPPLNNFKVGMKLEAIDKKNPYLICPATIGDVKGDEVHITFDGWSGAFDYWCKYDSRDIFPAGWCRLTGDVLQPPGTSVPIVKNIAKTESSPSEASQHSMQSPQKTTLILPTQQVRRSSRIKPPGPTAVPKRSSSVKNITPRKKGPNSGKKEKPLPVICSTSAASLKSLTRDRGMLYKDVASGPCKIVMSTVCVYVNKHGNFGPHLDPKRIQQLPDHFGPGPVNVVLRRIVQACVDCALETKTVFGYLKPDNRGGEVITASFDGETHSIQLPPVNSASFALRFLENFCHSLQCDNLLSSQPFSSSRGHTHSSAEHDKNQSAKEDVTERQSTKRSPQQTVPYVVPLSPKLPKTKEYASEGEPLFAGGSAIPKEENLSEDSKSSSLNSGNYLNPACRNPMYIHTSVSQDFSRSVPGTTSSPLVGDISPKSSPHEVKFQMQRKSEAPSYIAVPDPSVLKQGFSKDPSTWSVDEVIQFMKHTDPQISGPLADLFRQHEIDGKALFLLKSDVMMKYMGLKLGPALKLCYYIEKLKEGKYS
UniProt A5YKK6: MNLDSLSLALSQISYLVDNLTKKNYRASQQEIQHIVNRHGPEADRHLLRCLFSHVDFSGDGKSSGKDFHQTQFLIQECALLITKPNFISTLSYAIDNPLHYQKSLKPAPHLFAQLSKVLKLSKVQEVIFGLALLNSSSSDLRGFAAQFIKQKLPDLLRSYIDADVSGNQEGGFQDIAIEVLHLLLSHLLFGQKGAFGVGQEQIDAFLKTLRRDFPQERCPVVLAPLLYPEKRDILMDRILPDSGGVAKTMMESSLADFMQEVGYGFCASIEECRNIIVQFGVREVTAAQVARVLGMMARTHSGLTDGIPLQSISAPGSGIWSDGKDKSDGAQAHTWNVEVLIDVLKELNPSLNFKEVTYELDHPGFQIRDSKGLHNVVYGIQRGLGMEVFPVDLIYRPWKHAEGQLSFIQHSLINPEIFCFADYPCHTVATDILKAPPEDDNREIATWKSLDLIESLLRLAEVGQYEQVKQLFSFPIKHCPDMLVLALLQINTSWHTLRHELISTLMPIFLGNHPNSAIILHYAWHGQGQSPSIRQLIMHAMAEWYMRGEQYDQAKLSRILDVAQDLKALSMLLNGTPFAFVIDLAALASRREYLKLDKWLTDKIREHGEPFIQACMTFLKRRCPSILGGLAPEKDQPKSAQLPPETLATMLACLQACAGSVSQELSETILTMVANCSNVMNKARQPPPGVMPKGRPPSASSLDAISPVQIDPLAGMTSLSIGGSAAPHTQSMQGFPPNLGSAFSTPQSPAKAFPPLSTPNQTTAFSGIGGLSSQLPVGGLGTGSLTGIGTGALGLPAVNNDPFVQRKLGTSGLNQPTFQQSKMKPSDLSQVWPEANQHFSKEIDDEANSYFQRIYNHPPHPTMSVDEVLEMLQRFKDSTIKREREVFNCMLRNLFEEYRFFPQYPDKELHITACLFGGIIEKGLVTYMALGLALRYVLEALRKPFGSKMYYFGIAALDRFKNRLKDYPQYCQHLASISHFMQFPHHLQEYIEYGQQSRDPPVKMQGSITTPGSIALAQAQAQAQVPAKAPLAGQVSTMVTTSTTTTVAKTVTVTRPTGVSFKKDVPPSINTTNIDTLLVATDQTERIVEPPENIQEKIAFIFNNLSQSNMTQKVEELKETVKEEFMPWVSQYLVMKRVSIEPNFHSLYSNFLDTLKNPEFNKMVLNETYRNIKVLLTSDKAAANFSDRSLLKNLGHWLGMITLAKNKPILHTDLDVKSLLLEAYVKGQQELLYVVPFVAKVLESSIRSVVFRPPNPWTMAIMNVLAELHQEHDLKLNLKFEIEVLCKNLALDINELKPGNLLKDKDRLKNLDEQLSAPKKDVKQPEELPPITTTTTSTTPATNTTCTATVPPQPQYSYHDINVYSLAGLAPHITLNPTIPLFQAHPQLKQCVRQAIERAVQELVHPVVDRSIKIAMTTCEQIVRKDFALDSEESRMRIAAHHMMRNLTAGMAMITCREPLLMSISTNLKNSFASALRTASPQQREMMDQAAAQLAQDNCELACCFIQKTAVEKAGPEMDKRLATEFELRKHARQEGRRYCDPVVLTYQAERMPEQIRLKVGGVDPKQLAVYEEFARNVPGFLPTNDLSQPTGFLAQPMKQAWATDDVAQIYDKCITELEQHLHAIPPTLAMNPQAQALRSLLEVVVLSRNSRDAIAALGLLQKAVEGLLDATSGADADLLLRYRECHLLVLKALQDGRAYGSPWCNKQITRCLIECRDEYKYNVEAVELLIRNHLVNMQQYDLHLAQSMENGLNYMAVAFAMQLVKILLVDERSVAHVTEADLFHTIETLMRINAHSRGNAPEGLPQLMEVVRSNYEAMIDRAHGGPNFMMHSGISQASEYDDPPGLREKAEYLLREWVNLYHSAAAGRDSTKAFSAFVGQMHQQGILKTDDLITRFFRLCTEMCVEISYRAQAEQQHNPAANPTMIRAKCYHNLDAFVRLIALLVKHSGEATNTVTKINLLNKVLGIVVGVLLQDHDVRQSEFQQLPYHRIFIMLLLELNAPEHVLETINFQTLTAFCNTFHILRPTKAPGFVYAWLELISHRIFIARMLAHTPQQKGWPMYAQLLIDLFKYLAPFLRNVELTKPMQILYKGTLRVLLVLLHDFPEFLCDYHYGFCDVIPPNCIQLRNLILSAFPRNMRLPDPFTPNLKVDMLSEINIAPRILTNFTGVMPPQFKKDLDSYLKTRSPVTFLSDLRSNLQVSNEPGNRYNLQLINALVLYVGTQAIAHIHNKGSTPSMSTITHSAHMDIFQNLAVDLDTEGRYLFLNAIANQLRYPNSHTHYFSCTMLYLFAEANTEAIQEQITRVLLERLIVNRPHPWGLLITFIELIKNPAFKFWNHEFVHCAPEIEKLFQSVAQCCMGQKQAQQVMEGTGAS
UniProt P63208: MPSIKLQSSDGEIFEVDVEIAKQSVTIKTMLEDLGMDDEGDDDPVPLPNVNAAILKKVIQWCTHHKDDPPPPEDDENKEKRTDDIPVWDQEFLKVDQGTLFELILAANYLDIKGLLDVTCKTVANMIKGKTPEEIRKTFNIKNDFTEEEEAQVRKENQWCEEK
UniProt Q06587: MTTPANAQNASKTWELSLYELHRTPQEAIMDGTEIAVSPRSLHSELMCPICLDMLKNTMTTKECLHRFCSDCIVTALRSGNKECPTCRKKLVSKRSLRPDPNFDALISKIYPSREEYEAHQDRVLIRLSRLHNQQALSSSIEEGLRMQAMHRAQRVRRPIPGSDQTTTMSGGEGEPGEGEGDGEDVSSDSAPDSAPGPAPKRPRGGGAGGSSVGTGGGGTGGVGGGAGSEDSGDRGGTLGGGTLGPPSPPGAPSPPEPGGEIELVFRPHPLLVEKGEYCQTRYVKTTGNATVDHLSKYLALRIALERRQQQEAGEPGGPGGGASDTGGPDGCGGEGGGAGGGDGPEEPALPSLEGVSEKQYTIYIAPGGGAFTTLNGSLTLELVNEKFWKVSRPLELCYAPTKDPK
UniProt Q93009: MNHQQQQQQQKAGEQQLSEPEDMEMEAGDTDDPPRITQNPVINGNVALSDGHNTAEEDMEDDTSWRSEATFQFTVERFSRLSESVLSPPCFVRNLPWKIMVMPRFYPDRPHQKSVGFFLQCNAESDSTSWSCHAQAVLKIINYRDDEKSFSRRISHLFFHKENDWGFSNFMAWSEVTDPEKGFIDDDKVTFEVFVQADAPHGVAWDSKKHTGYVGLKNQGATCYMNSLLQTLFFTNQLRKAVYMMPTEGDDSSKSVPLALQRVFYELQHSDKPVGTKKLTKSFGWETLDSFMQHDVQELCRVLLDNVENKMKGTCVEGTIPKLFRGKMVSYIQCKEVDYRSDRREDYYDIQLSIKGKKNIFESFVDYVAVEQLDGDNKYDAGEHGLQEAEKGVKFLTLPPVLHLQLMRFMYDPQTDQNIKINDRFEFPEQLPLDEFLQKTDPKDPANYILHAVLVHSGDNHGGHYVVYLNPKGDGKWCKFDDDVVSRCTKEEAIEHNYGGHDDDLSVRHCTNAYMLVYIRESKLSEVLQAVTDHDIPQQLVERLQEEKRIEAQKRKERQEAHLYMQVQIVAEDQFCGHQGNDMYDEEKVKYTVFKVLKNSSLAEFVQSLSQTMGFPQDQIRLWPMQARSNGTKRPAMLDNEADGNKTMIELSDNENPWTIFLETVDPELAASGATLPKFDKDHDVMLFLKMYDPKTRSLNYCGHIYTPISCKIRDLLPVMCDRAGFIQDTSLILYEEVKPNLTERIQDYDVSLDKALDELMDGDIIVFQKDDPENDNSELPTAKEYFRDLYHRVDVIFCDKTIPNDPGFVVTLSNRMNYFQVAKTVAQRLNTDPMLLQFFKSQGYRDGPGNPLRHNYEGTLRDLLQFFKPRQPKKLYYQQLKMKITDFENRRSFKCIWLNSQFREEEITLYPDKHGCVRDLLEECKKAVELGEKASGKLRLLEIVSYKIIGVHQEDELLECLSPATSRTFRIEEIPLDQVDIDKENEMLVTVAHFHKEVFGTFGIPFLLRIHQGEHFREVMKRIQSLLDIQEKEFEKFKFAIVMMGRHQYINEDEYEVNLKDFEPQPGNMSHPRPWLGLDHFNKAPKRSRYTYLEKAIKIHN
UniProt P67870: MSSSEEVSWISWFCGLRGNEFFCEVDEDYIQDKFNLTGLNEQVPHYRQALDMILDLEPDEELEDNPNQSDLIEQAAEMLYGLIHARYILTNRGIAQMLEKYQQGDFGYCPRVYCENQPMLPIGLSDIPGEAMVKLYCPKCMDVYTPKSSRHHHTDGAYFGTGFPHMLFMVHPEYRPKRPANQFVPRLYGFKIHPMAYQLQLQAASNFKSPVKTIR
UniProt Q99496: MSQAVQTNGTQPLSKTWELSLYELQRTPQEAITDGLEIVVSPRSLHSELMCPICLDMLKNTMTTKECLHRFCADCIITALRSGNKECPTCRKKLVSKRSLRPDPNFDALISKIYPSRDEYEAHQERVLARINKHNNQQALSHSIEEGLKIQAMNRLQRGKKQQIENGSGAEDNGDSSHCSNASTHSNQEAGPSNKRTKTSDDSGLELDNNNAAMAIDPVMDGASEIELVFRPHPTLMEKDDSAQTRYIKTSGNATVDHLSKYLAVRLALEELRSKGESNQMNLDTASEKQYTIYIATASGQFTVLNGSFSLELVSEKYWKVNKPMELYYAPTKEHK

Drawing on article doi:10.1101/2022.05.18.492435, this text covers binding for 15 molecules.

Holding throughout (assay): affinity purification with mass spectrometry
Assay [1] deals with T1, PCGF2 (human (endogenous in NT2)) (UniProt P35227).
T1 sequence: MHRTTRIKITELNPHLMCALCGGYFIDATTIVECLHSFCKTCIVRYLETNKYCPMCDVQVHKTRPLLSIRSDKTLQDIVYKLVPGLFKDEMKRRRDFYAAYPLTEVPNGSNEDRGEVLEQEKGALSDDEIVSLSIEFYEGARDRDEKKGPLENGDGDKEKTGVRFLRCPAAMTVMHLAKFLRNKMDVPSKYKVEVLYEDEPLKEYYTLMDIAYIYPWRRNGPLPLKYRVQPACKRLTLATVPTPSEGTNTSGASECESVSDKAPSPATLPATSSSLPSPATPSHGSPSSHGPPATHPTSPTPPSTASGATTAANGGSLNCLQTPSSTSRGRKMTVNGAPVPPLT

The target of assay [2] is PCGF4 (human (endogenous in NT2)) (UniProt P35226).
Assay [3] concerns the target PCGF1 (human (endogenous in NT2)) (UniProt Q9BSM1).

On to CBX8 (from UniProt Q9HC52 1-389), for which the binding result in assay [1] is recorded as “binds”.
In the case of SCML2 (from UniProt Q9UQR0 1-700), the binding entry in assay [1] and in assay [2] was “binds” throughout.
As for CNOT1 (from UniProt A5YKK6 1-2376), the binding result in assay [3] is reported as “binds”.
As for SKP1 (from UniProt P63208 1-163), in assay [3], the binding entry is “binds”.
On the same count and under the same terms, for BCORL1 (from UniProt Q5H9F3 1-1785) the value was “binds”.
As for RING1A (from UniProt Q06587 1-406), the binding result in assay [1], in assay [3] and in assay [2] was “binds” in each case.
For SCMH1 (from UniProt Q96GD3 1-660), the binding result in assay [1] and in assay [2] was “binds” each time.
Consider USP7 (from UniProt Q93009 1-1102), for which the binding result in assay [1], in assay [3] and in assay [2] was “binds” each time.
In the case of CSNK2B (from UniProt P67870 1-215), the binding entry in assay [1], in assay [3] and in assay [2] was “binds” in each case.
RNF2 (from UniProt Q99496 1-336): the binding result in assay [1] is listed as “binds”.

B1: PHC1 (protein, UniProt P78364 1-1004)
chain: METESEQNSNSTNGSSSSGGSSRPQIAQMSLYERQAVQALQALQRQPNAAQYFHQFMLQQQLSNAQLHSLAAVQQATIAASRQASSPNTSTTQQQTTTTQASINLATTSAAQLISRSQSVSSPSATTLTQSVLLGNTTSPPLNQSQAQMYLRPQLGNLLQVNRTLGRNVPLASQLILMPNGAVAAVQQEVPSAQSPGVHADADQVQNLAVRNQQASAQGPQMQGSTQKAIPPGASPVSSLSQASSQALAVAQASSGATNQSLNLSQAGGGSGNSIPGSMGPGGGGQAHGGLGQLPSSGMGGGSCPRKGTGVVQPLPAAQTVTVSQGSQTEAESAAAKKAEADGSGQQNVGMNLTRTATPAPSQTLISSATYTQIQPHSLIQQQQQIHLQQKQVVIQQQIAIHHQQQFQHRQSQLLHTATHLQLAQQQQQQQQQQQQQQQPQATTLTAPQPPQVPPTQQVPPSQSQQQAQTLVVQPMLQSSPLSLPPDAAPKPPIPIQSKPPVAPIKPPQLGAAKMSAAQQPPPHIPVQVVGTRQPGTAQAQALGLAQLAAAVPTSRGMPGTVQSGQAHLASSPPSSQAPGALQECPPTLAPGMTLAPVQGTAHVVKGGATTSSPVVAQVPAAFYMQSVHLPGKPQTLAVKRKADSEEERDDVSTLGSMLPAKASPVAESPKVMDEKSSLGEKAESVANVNANTPSSELVALTPAPSVPPPTLAMVSRQMGDSKPPQAIVKPQILTHIIEGFVIQEGAEPFPVGCSQLLKESEKPLQTGLPTGLTENQSGGPLGVDSPSAELDKKANLLKCEYCGKYAPAEQFRGSKRFCSMTCAKRYNVSCSHQFRLKRKKMKEFQEANYARVRRRGPRRSSSDIARAKIQGKCHRGQEDSSRGSDNSSYDEALSPTSPGPLSVRAGHGERDLGNPNTAPPTPELHGINPVFLSSNPSRWSVEEVYEFIASLQGCQEIAEEFRSQEIDGQALLLLKEEHLMSAMNIKLGPALKICAKINVLKET
Consider B1, for which the binding result in assay [1] and in assay [2] was “binds” each time.

B2: PHC2 (protein, UniProt Q8IXK0 1-858)
chain: MENELPVPHTSSSACATSSTSGASSSSGCNNSSSGGSGRPTGPQISVYSGIPDRQTVQVIQQALHRQPSTAAQYLQQMYAAQQQHLMLQTAALQQQHLSSAQLQSLAAVQQASLVSNRQGSTSGSNVSAQAPAQSSSINLAASPAAAQLLNRAQSVNSAAASGIAQQAVLLGNTSSPALTASQAQMYLRAQMLIFTPTATVATVQPELGTGSPARPPTPAQVQNLTLRTQQTPAAAASGPTPTQPVLPSLALKPTPGGSQPLPTPAQSRNTAQASPAGAKPGIADSVMEPHKKGDGNSSVPGSMEGRAGLSRTVPAVAAHPLIAPAYAQLQPHQLLPQPSSKHLQPQFVIQQQPQPQQQQPPPQQSRPVLQAEPHPQLASVSPSVALQPSSEAHAMPLGPVTPALPLQCPTANLHKPGGSQQCHPPTPDTGPQNGHPEGVPHTPQRRFQHTSAVILQLQPASPPQQCVPDDWKEVAPGEKSVPETRSGPSPHQQAIVTAMPGGLPVPTSPNIQPSPAHETGQGIVHALTDLSSPGMTSGNGNSASSIAGTAPQNGENKPPQAIVKPQILTHVIEGFVIQEGAEPFPVGRSSLLVGNLKKKYAQGFLPEKLPQQDHTTTTDSEMEEPYLQESKEEGAPLKLKCELCGRVDFAYKFKRSKRFCSMACAKRYNVGCTKRVGLFHSDRSKLQKAGAATHNRRRASKASLPPLTKDTKKQPTGTVPLSVTAALQLTHSQEDSSRCSDNSSYEEPLSPISASSSTSRRRQGQRDLELPDMHMRDLVGMGHHFLPSEPTKWNVEDVYEFIRSLPGCQEIAEEFRAQEIDGQALLLLKEDHLMSAMNIKLGPALKIYARISMLKDS
As for B2, the binding entry in assay [1] and in assay [2] was “binds” throughout.

B3: KDM2B (protein, UniProt Q8NHM5 1-1336)
chain: MAGPQMGGSAEDHPPRKRHAAEKQKKKTVIYTKCFEFESATQRPIDRQRYDENEDLSDVEEIVSVRGFSLEEKLRSQLYQGDFVHAMEGKDFNYEYVQREALRVPLIFREKDGLGIKMPDPDFTVRDVKLLVGSRRLVDVMDVNTQKGTEMSMSQFVRYYETPEAQRDKLYNVISLEFSHTKLEHLVKRPTVVDLVDWVDNMWPQHLKEKQTEATNAIAEMKYPKVKKYCLMSVKGCFTDFHIDFGGTSVWYHVFRGGKIFWLIPPTLHNLALYEEWVLSGKQSDIFLGDRVERCQRIELKQGYTFFIPSGWIHAVYTPVDSLVFGGNILHSFNVPMQLRIYEIEDRTRVQPKFRYPFYYEMCWYVLERYVYCVTQRSHLTQEYQRESMLIDAPRKPSIDGFSSDSWLEMEEEACDQQPQEEEEKDEEGEGRDRAPKPPTDGSTSPTSTPSEDQEALGKKPKAPALRFLKRTLSNESEESVKSTTLAVDYPKTPTGSPATEVSAKWTHLTEFELKGLKALVEKLESLPENKKCVPEGIEDPQALLEGVKNVLKEHADDDPSLAITGVPVVTWPKKTPKNRAVGRPKGKLGPASAVKLAANRTTAGARRRRTRCRKCEACLRTECGECHFCKDMKKFGGPGRMKQSCIMRQCIAPVLPHTAVCLVCGEAGKEDTVEEEEGKFNLMLMECSICNEIIHPGCLKIKESEGVVNDELPNCWECPKCNHAGKTGKQKRGPGFKYASNLPGSLLKEQKMNRDNKEGQEPAKRRSECEEAPRRRSDEHSKKVPPDGLLRRKSDDVHLRKKRKYEKPQELSGRKRASSLQTSPGSSSHLSPRPPLGSSLSPWWRSSLTYFQQQLKPGKEDKLFRKKRRSWKNAEDRMALANKPLRRFKQEPEDELPEAPPKTRESDHSRSSSPTAGPSTEGAEGPEEKKKVKMRRKRRLPNKELSRELSKELNHEIQRTENSLANENQQPIKSEPESEGEEPKRPPGICERPHRFSKGLNGTPRELRHQLGPSLRSPPRVISRPPPSVSPPKCIQMERHVIRPPPISPPPDSLPLDDGAAHVMHREVWMAVFSYLSHQDLCVCMRVCRTWNRWCCDKRLWTRIDLNHCKSITPLMLSGIIRRQPVSLDLSWTNISKKQLSWLINRLPGLRDLVLSGCSWIAVSALCSSSCPLLRTLDVQWVEGLKDAQMRDLLSPPTDNRPGQMDNRSKLRNIVELRLAGLDITDASLRLIIRHMPLLSKLHLSYCNHVTDQSINLLTAVGTTTRDSLTEINLSDCNKVTDQCLSFFKRCGNICHIDLRYCKQVTKEGCEQFIAEMSVSVQFGQVEEKLLQKLS
For the molecule B3, the binding result in assay [1], in assay [3] and in assay [2] was “binds” each time.

B4: CNOT4 (protein, UniProt O95628 1-575)
chain: MSRSPDAKEDPVECPLCMEPLEIDDINFFPCTCGYQICRFCWHRIRTDENGLCPACRKPYPEDPAVYKPLSQEELQRIKNEKKQKQNERKQKISENRKHLASVRVVQKNLVFVVGLSQRLADPEVLKRPEYFGKFGKIHKVVINNSTSYAGSQGPSASAYVTYIRSEDALRAIQCVNNVVVDGRTLKASLGTTKYCSYFLKNMQCPKPDCMYLHELGDEAASFTKEEMQAGKHQEYEQKLLQELYKLNPNFLQLSTGSVDKNKNKVTPLQRYDTPIDKPSDSLSIGNGDNSQQISNSDTPSPPPGLSKSNPVIPISSSNHSARSPFEGAVTESQSLFSDNFRHPNPIPSGLPPFPSSPQTSSDWPTAPEPQSLFTSETIPVSSSTDWQAAFGFGSSKQPEDDLGFDPFDVTRKALADLIEKELSVQDQPSLSPTSLQNSSSHTTTAKGPGSGFLHPAAATNANSLNSTFSVLPQRFPQFQQHRAVYNSFSFPGQAARYPWMAFPRNSIMHLNHTANPTSNSNFLDLNLPPQHNTGLGGIPVAGEEEVKVSTMPLSTSSHSLQQGQQPTSLHTTVA
In the case of B4, the binding entry in assay [3] is “binds”.

B5: CBX4 (protein, UniProt O00257 1-560)
chain: MELPAVGEHVFAVESIEKKRIRKGRVEYLVKWRGWSPKYNTWEPEENILDPRLLIAFQNRERQEQLMGYRKRGPKPKPLVVQVPTFARRSNVLTGLQDSSTDNRAKLDLGAQGKGQGHQYELNSKKHHQYQPHSKERAGKPPPPGKSGKYYYQLNSKKHHPYQPDPKMYDLQYQGGHKEAPSPTCPDLGAKSHPPDKWAQGAGAKGYLGAVKPLAGAAGAPGKGSEKGPPNGMMPAPKEAVTGNGIGGKMKIVKNKNKNGRIVIVMSKYMENGMQAVKIKSGEVAEGEARSPSHKKRAADERHPPADRTFKKAAGAEEKKVEAPPKRREEEVSGVSDPQPQDAGSRKLSPTKEAFGEQPLQLTTKPDLLAWDPARNTHPPSHHPHPHPHHHHHHHHHHHHAVGLNLSHVRKRCLSETHGEREPCKKRLTARSISTPTCLGGSPAAERPADLPPAAALPQPEVILLDSDLDEPIDLRCVKTRSEAGEPPSSLQVKPETPASAAVAVAAAAAPTTTAEKPPAEAQDEPAESLSEFKPFFGNIIITDVTANCLTVTFKEYVTV
Take B5: the binding result in assay [1] and in assay [2] was “binds” throughout.
